# Assay results as given in article PMC12661054, “The CIP2A-TOPBP1 axis facilitates mitotic DNA repair via MiDAS and MMEJ” (Nature Communications, 2025).
# Sequences of proteins named here, by UniProt entry; tags and fusion partners are left off. A change or cut given only in a name is not applied to a line headed by its entry. A line that says so, or that is headed by a name, gives the form on record, which may keep a tag or linker.
# UniProt Q92547: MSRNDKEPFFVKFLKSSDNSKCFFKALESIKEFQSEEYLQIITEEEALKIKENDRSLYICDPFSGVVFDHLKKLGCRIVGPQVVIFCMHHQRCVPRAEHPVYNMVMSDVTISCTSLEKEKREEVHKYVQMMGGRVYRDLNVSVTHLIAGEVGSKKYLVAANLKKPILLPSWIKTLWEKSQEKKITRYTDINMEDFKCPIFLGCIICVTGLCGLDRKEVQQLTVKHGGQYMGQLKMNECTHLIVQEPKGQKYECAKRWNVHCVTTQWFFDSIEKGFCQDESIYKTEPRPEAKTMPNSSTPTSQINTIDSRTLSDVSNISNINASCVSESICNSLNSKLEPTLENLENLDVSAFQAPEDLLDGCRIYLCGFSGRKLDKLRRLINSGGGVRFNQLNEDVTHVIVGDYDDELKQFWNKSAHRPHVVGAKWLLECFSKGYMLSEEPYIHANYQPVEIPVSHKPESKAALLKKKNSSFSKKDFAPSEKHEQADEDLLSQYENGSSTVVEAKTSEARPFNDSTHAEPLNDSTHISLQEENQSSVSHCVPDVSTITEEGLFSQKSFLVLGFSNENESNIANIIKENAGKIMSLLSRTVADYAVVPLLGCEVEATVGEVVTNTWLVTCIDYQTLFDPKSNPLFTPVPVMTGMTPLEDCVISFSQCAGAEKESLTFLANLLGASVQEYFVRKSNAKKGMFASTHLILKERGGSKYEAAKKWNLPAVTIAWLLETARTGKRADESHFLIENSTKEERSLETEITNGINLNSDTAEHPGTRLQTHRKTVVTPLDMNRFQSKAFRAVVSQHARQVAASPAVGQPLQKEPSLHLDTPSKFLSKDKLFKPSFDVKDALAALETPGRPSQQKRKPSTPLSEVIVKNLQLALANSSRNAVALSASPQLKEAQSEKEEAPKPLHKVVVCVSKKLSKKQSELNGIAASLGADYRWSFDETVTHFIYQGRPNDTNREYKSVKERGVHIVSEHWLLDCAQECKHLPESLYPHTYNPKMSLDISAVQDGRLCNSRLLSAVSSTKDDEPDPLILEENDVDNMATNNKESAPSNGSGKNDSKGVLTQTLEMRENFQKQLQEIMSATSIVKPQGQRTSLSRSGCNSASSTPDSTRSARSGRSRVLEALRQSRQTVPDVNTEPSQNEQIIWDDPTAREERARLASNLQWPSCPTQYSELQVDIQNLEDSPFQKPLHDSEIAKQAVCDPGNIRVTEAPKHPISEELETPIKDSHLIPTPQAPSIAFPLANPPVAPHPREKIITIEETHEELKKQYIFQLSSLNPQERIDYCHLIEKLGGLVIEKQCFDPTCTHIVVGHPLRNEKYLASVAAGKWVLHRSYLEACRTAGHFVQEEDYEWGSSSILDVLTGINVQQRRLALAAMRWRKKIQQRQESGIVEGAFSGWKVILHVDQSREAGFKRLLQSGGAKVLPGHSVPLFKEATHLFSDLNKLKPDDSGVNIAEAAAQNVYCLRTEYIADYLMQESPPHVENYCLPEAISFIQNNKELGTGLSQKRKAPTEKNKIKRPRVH
# GST-TOPBP1(BRCT0-2 1-290) K155E (Q92547, form named): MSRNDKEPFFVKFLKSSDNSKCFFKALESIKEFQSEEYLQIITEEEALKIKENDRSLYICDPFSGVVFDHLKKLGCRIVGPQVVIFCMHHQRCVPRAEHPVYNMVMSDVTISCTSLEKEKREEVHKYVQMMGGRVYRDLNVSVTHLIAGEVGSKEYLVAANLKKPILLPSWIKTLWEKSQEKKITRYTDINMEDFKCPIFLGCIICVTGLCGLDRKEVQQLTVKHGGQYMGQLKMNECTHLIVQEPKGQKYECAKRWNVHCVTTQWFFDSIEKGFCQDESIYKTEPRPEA
# GST-TOPBP1(BRCT0-2 1-290) K155E/K250E (Q92547, form named): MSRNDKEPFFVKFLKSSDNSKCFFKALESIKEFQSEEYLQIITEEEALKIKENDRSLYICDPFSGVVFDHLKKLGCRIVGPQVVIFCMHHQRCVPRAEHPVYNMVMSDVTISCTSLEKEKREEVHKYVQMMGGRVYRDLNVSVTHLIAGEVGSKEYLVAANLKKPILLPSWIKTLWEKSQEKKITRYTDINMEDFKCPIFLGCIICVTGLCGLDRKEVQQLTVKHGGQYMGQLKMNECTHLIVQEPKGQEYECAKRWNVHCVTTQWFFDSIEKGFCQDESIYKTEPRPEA
# UniProt P54132: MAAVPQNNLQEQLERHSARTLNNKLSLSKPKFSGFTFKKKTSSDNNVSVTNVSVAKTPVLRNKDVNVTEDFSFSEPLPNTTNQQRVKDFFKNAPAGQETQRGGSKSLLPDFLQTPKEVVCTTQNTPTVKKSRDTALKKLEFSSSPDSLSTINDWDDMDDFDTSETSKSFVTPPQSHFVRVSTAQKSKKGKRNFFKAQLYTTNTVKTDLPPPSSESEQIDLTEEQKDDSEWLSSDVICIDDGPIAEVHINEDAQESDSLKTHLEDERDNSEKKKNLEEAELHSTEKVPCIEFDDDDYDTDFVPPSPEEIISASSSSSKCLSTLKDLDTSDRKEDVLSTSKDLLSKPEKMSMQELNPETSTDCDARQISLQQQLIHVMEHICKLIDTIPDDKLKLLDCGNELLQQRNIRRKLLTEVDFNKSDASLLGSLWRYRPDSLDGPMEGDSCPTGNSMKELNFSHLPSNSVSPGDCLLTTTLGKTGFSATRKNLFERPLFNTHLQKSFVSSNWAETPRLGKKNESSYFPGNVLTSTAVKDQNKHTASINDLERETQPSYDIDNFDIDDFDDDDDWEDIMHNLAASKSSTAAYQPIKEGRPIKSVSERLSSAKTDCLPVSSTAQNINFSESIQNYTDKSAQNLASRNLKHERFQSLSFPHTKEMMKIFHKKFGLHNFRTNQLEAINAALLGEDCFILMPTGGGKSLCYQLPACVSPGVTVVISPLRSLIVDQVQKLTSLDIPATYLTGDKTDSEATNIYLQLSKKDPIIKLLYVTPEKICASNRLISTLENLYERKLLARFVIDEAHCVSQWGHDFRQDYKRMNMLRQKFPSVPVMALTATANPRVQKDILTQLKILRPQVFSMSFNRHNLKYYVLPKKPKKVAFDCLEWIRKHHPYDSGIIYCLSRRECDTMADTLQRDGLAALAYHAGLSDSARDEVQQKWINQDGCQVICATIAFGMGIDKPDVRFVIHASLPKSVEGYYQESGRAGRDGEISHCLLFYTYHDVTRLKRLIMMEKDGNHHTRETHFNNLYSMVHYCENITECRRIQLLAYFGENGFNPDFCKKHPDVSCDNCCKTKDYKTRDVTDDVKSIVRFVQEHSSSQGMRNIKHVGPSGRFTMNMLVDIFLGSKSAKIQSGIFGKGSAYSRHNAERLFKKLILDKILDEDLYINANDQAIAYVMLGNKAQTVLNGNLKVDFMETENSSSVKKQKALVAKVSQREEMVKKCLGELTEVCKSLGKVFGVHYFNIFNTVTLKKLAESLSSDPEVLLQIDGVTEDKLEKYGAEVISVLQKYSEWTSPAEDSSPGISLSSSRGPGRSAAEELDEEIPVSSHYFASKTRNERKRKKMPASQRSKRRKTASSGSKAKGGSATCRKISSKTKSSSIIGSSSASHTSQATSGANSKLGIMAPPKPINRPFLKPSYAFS
# UniProt Q8IY92: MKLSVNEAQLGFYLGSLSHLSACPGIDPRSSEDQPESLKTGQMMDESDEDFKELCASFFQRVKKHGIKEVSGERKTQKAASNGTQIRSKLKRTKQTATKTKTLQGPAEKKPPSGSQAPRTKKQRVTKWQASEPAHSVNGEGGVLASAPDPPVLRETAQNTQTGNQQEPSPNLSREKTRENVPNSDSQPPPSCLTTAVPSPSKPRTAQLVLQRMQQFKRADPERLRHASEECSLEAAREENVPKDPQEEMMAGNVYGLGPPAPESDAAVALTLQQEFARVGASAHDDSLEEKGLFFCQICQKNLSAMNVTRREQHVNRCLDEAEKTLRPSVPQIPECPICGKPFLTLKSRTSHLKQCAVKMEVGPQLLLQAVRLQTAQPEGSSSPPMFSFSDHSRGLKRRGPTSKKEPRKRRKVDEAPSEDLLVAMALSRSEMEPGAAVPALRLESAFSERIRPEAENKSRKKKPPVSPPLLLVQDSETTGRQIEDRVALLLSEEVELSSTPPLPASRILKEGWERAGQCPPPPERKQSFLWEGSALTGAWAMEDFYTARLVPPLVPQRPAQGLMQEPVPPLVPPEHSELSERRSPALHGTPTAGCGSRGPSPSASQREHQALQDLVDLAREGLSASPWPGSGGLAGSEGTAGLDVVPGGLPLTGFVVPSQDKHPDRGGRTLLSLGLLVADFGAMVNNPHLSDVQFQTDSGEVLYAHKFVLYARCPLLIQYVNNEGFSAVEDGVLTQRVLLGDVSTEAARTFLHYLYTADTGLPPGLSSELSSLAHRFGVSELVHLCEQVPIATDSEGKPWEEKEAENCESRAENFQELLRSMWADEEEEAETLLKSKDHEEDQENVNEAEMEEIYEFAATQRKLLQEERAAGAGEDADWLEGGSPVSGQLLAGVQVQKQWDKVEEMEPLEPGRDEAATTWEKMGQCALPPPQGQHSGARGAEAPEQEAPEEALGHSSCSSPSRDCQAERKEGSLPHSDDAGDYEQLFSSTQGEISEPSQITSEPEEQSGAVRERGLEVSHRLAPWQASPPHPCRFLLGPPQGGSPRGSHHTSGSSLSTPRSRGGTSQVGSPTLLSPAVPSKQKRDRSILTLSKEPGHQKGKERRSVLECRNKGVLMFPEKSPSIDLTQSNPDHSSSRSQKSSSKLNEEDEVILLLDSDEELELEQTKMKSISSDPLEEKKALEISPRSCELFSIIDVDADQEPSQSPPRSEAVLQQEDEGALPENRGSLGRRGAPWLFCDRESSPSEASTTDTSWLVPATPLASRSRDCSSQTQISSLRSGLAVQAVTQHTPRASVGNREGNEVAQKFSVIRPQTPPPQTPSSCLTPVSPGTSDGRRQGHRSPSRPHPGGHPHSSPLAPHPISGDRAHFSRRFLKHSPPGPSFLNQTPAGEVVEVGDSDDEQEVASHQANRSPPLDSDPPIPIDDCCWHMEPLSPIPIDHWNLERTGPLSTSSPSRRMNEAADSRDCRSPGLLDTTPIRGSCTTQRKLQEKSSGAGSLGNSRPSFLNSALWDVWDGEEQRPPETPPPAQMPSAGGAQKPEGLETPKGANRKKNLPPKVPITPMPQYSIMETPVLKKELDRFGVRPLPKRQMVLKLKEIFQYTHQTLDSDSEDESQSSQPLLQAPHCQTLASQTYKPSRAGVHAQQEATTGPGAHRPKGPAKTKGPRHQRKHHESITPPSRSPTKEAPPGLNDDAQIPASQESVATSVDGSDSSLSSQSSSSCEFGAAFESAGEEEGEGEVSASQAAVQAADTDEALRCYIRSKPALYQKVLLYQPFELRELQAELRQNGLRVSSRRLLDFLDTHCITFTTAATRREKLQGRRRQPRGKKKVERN
# No constants are given. Whether binding was seen depends on the method and setting. For some assays here: Binding seen in cells or lysates may run through a third protein. Some entries that bind do so weakly or less than the wild type.
# Tests used:
# eGFP-TOPBP1 WT (human) [1] = target: eGFP-TOPBP1 WT (human) (UniProt Q92547); assay: co-IP; GFP-Trap agarose from benzonase-treated whole-cell lysates of transfected HEK293TN cells (nocodazole 100 ng/ml 18 h; in some panels asynchronous cells or 7 µM RO-3306 for 30 min); 200 mM NaCl, 0.2% Igepal, pH 7.5, 4 °C; western blot
# Flu-SLX4_pT1260 (human) [2] = target: T1, Flu-SLX4_pT1260 (human); assay: fluorescence polarisation; 100 nM fluorescein-labelled SLX4 peptide, increasing concentrations of TOPBP1 BRCT fragment; room temperature; 25 mM HEPES pH 7.5, 150 mM NaCl, 1 mM EDTA, 0.25 mM TCEP, 0.002% Tween 20; single site with non-specific component; both purified
# T1 sequence (peptide, fluorescein ('Flu') on the N-terminus; phosphothreonine at Thr1260): GYGTSWLVPATPLASRSR
# Flu-SLX4_pT1260 (human) [3] = target: T1, Flu-SLX4_pT1260 (human); assay: condition: only after treatment of the peptide with lambda phosphatase; fluorescence polarisation; 100 nM fluorescein-labelled SLX4 peptide, increasing concentrations of TOPBP1 BRCT fragment; room temperature; 25 mM HEPES pH 7.5, 150 mM NaCl, 1 mM EDTA, 0.25 mM TCEP, 0.002% Tween 20; single site with non-specific component; both purified
# Flu-SLX4_pT1476 (human) = target: T2, Flu-SLX4_pT1476 (human); assay: fluorescence polarisation; 100 nM fluorescein-labelled SLX4 peptide, increasing concentrations of TOPBP1 BRCT fragment; room temperature; 25 mM HEPES pH 7.5, 150 mM NaCl, 1 mM EDTA, 0.25 mM TCEP, 0.002% Tween 20; single site with non-specific component; both purified
# T2 sequence (peptide, fluorescein ('Flu') on the N-terminus; phosphothreonine at Thr1476): GYGSPGLLDTTPIRGSCT
# [4] = target: eGFP-TOPBP1 1 + 2 (K155E + K250E) (human) (UniProt Q92547); assay: co-IP; GFP-Trap co-IP from the chromatin fraction of transfected HEK293TN cells treated with 100 ng/ml nocodazole for 18 h; western blot
# eGFP-TOPBP1 WT (human) [5] = target: eGFP-TOPBP1 WT (human) (UniProt Q92547); assay: as above
binding (eGFP-TOPBP1 WT (human) [1]),binding (Flu-SLX4_pT1260 (human) [2]),other results,Substance
binds,–,–,BLM (endogenous) (from UniProt P54132 1-1417)
–,no binding,–,GST-TOPBP1(BRCT0-2 1-290) K155E (from UniProt Q92547 1-290) (domain or fragment)
–,no binding,–,GST-TOPBP1(BRCT0-2 1-290) K155E/K250E (from UniProt Q92547 1-290) (domain or fragment)
–,–,binding (Flu-SLX4_pT1260 (human) [3]): no binding; binding (Flu-SLX4_pT1476 (human)): no binding,GST-TOPBP1(BRCT0-2 1-290) WT (from UniProt Q92547 1-290) (domain or fragment)
binds,–,binding [4]: binds; binding (eGFP-TOPBP1 WT (human) [5]): binds,SLX4 (endogenous) (from UniProt Q8IY92 1-1834)
